# Measured data: PubChem BioAssay AID1671195 (Yale University, 2021)
# Assay: 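Genes whose knockdown alters LDL uptake in liver cancer cells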 (primary screen)
# Cell system: human Huh7 hepatoma cells
# Knock-down reagent: siRNA pool against human genes, 18 nM
# Time to read-out: about 2 to 2.5 days of knockdown, then 8 h LDL uptake
# Challenge: DiI-labelled LDL at 30 µg/ml for 8 h, in lipoprotein-deficient serum medium
# Detection: 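Fluorescent LDL signal imaged in cells, scaled to the plate median, robust z-score for each replicate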
# Scale: robust z-score: higher = more LDL uptake after knockdown
# Hit rule: 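Active when two or more replicates show a robust z-score above 2 or below -2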
# The whole screen tested about 22,000 reagents; below is a part drawn at random. Over the whole deposit, about 1,510 (6.9%) got an active call. 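Active includes knockdowns raising or lowering LDL uptake; positive z-scores mean more uptake, negative mean less.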 Reagents against one gene are numbered here. Reagent sequences are not shown.
target,reagent no.,"robust z-score, replicate 1","robust z-score, replicate 2","robust z-score, replicate 3",Outcome
ZNF148,1,-0.458,-0.401,-0.232,inactive
GBP5,1,-0.851,-1.65,-1.22,inactive
TASP1,1,1.6,1.22,1.65,inactive
TM7SF2,1,-1,-1.29,-1.06,inactive
TET2,1,0.913,-0.0906,0.878,inactive
TET2,2,-0.921,-1.35,-1.26,inactive
HCG22,1,-1.71,-1.35,-1.55,inactive
SCGN,1,-0.363,-0.12,-0.258,inactive
SEMA6A,1,0.604,2.04,-0.00987,inactive
FAM149B1P1,1,-0.0946,0.436,-0.122,inactive
GBE1,1,1.45,0.932,1.6,inactive
GLRX3,1,-0.745,-0.405,-0.0115,inactive
RLN1,1,-0.375,-0.0819,0.112,inactive
FAM193A,1,-0.165,1.91,0.634,inactive
MPV17L2,1,-1.1,-0.724,-1.05,inactive
GJB5,1,-1.45,-1.74,-1.44,inactive
ZNF17,1,0.728,1.1,0.867,inactive
KRT18P21,1,0.427,0.737,-0.0704,inactive
OMP,1,0.203,0.677,0.0386,inactive
CACNA1D,1,1.15,0.332,0.665,inactive
CPEB2,1,-0.552,-0.946,-0.564,inactive
CDK20,1,0.194,0.165,0.224,inactive
EVC,1,-0.482,0.0708,-0.0318,inactive
LINC01312,1,0.72,-0.112,0.693,inactive
LOC440088 (retired record),1,-0.185,0.0207,0.106,inactive
H2BC11,1,0.322,-1.23,-1.49,inactive
FRK,1,-0.351,-0.159,-0.565,inactive
CCL18,1,-0.683,-0.407,0.0694,inactive
ACOT4,1,-1.28,-1.55,-0.856,inactive
LILRP2,1,0.327,0.0706,0.102,inactive
HRH2,1,-1.52,-1.96,-1.7,inactive
GALM,1,0.245,0.195,0.252,inactive

Laid out differently: 5 of the entries above
SEMA6A
- robust z-score, replicate 1: 0.604
- robust z-score, replicate 2: 2.04
- robust z-score, replicate 3: -0.00987
- Outcome: inactive

FAM149B1P1
- robust z-score, replicate 1: -0.0946
- robust z-score, replicate 2: 0.436
- robust z-score, replicate 3: -0.122
- Outcome: inactive

GBE1
- robust z-score, replicate 1: 1.45
- robust z-score, replicate 2: 0.932
- robust z-score, replicate 3: 1.6
- Outcome: inactive

GLRX3
- robust z-score, replicate 1: -0.745
- robust z-score, replicate 2: -0.405
- robust z-score, replicate 3: -0.0115
- Outcome: inactive

RLN1
- robust z-score, replicate 1: -0.375
- robust z-score, replicate 2: -0.0819
- robust z-score, replicate 3: 0.112
- Outcome: inactive

Continued:
target,reagent no.,"robust z-score, replicate 1","robust z-score, replicate 2","robust z-score, replicate 3",Outcome
KIAA1549,1,-1.78,-1.93,-1.8,inactive
TRIM50,1,-1.4,-0.871,-0.394,inactive
COPS6,1,-0.327,-0.87,0.833,inactive
CXCL3,1,0.621,1.66,1.87,inactive
DENND1C,1,-0.634,-0.853,-0.717,inactive
CENPP,1,0.828,-1.38,0.575,inactive
SPTB,1,-0.126,-1.55,0.579,inactive
DUSP10,1,-0.177,-0.127,-0.347,inactive
PIGU,1,-0.096,-0.959,-0.281,inactive
VBP1,1,-0.688,-0.464,-0.533,inactive
PDXDC1,1,-0.998,0.586,-0.805,inactive
VSIG1,1,-0.809,-1.13,-0.527,inactive
KRTAP3-3,1,0.752,0.323,0.436,inactive
TOP2B,1,0.0445,1.31,1.06,inactive
MEPCE,1,4.65,3.88,4.76,active
CELA1,1,1.06,1.07,0.496,inactive
GRTP1,1,0.688,0.679,0.551,inactive
LOC402367 (retired record),1,-0.928,0.0744,-0.526,inactive
OSBPL1A,1,0.541,1.19,0.152,inactive
LRRC57,1,0.122,0.017,0.008,inactive
MAMDC2,1,2.08,2.57,2.16,active
TSPAN9,1,-0.387,-0.698,-0.932,inactive
GCSAM,1,-0.0461,0.518,-0.0268,inactive
LOC440768 (retired record),1,-0.517,0.455,1.06,inactive
PID1,1,1.21,1.83,1.55,inactive
RASA4,1,0.348,0.397,0.483,inactive
TACC1,1,0.907,0.711,0.175,inactive
LOC440484 (retired record),1,3.69,4.02,3.41,active
ICA1,1,-0.913,-0.355,-0.475,inactive
MED27,1,-1.51,0.164,-1.36,inactive
LOC442121 (retired record),1,-1.26,-1.08,-0.842,inactive
SLC13A5,1,0.338,1.34,0.972,inactive
SRD5A2,1,-0.211,-0.019,0.129,inactive
LOC440025 (retired record),1,-1.18,-0.445,-1.35,inactive
SMOC2,1,-0.77,-0.943,-1.36,inactive
LOC340148 (retired record),1,-0.835,-0.654,-1.04,inactive
